For two molecules, binding results are on record in paper PMC7692634, “Structural Basis of Inhibition of the Pioneer Transcription Factor NF-Y by Suramin” (Cells, 2020).

Protein sequences, listed by entry. Tags and fused reporters are not part of them. Residues count along the entry.
NF-YA C-terminal portion (YA3; aa 239-347) (P23511, residues 239-347): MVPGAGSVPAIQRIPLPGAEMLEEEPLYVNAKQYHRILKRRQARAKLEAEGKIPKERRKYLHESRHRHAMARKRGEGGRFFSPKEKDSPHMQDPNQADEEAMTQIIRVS
NF-YA minimal functional domain (aa 262-332) of the NF-Y trimer NF-Yt (P23511, residues 262-332): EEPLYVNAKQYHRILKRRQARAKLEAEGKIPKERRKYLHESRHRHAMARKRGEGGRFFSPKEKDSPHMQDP

Assay [1] deals with T1, NF-Y HFD dimer (NF-YB/NF-YC minimal functional domains) (human) (UniProt P25208+Q13952).
T1 sequence 1: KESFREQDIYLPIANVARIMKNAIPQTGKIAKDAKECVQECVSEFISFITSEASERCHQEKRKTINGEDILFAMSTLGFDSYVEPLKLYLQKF
T1 sequence 2: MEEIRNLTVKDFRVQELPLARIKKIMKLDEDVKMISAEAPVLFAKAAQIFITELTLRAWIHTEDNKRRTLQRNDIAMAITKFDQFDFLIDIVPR
In words: native gel or EMSA; equimolar purified NF-YA mixed with NF-Yd, 40 nM protein, 20 nM Cy5-labelled 31-bp HSP70 CCAAT probe, 20 mM Tris-Cl pH 7.5, 50 mM NaCl, 5 mM MgCl2, 30 °C for 30 min; 6% non-denaturing gel; the trimer is seen as its complex with DNA; both purified.

For assay [2], the target named is T2, NF-YB minimal functional domain (aa 49-141) (human) (UniProt P25208).
T2 sequence: T1 sequence 1
In words: crystal structure; NF-Yd incubated overnight at 4 °C with a tenfold molar excess of suramin; sitting drop, 20 °C, 200 mM ammonium citrate tribasic, 20% PEG 3350; 2.7 Å, P212121, two NF-Yd and one suramin per asymmetric unit; both purified.

Assay [3] has as its target NF-YA minimal functional domain (aa 262-332) of the NF-Y trimer NF-Yt (UniProt P23511). In words: co-purification (nickel affinity by the 6His-tag on NF-YA, then size exclusion); three subunits co-expressed in E. coli; lysate in 10 mM Tris-HCl pH 8, 400 mM NaCl, 2 mM MgCl2, 2 mM imidazole loaded on a His-Select nickel column; Superdex 75 in 10 mM Tris-HCl pH 8, 400 mM NaCl, 2 mM DTT. For orientation: Size exclusion chromatography separates by hydrodynamic size, large species first.

Results are given in words; binding and its absence hold for the method and conditions named. Some binding calls cover weakened binding; strength is not graded here.

Consider “NF-YA C-terminal portion (YA3; aa 239-347) (from UniProt P23511 239-347) (domain or fragment)”, for which, in assay [1], the binding result was “binds”.

B1: NF-YC minimal functional domain (aa 27-120) (domain or fragment, UniProt Q13952 27-120)
chain: T1 sequence 2
Consider B1, for which the binding result in assay [2] and in assay [3] was “binds” each time.
